From article doi:10.1101/835280
Results are given in words; binding and its absence hold for the method and conditions named.

Molecular target: N-terminal domain of KaiA (residues 1-135) (Synechococcus elongatus PCC 7942) (UniProt Q79PF6)
Assay: SEC

B1: N-terminal domain of KaiA (residues 1-135) (domain or fragment, UniProt Q79PF6 1-135)
chain: MLSQIAICIWVESTAILQDCQRALSADRYQLQVCESGEMLLEYAQTHRDQIDCLILVAANPSFRAVVQQLCFEGVVVPAIVVGDRDSEDPDEPAKEQLYHSAELHLGIHQLEQLPYQVDAALAEFLRLAPVETMA
- binding: no binding
